In ChEMBL document CHEMBL4316593 (Eur J Med Chem, 2019):
The source gives many values for each of these; only a part stands here.

Legend:
Format in all cases: cell-based
Conditions in all cases: U-87MG ATCC
[1] = Inhibition of RTK/PI3K/AKT/mTOR signaling in human U87 cells assessed as up regulation of TMEM145 gene expression at cytotoxic IC50 measured after 48 hrs relative to control
[2] = Inhibition of RTK/PI3K/AKT/mTOR signaling in human U87 cells assessed as down regulation of SPAG9 gene expression at cytotoxic IC50 measured after 48 hrs relative to control
[3] = Inhibition of RTK/PI3K/AKT/mTOR signaling in human U87 cells assessed as down regulation of RND1 gene expression at cytotoxic IC50 measured after 48 hrs relative to control
[4] = Inhibition of RTK/PI3K/AKT/mTOR signaling in human U87 cells assessed as up regulation of immunoglobulin superfamily member 3 gene expression at cytotoxic IC50 measured after 48 hrs relative to control
[5] = Inhibition of RTK/PI3K/AKT/mTOR signaling in human U87 cells assessed as down regulation of DISP1 gene expression at cytotoxic IC50 measured after 48 hrs relative to control
[6] = Inhibition of RTK/PI3K/AKT/mTOR signaling in human U87 cells assessed as down regulation of EIF1 gene expression at cytotoxic IC50 measured after 48 hrs relative to control
[7] = Inhibition of RTK/PI3K/AKT/mTOR signaling in human U87 cells assessed as down regulation of NDUFA6 gene expression at cytotoxic IC50 measured after 48 hrs relative to control
[8] = Inhibition of RTK/PI3K/AKT/mTOR signaling in human U87 cells assessed as up regulation of ectonucleoside triphosphate diphosphohydrolase 6 (putative) gene expression at cytotoxic IC50 measured after 48 hrs relative to control
[9] = Inhibition of RTK/PI3K/AKT/mTOR signaling in human U87 cells assessed as up regulation of RPL23 gene expression at cytotoxic IC50 measured after 48 hrs relative to control
[10] = Inhibition of RTK/PI3K/AKT/mTOR signaling in human U87 cells assessed as down regulation of WDR47 gene expression at cytotoxic IC50 measured after 48 hrs relative to control
[11] = Inhibition of RTK/PI3K/AKT/mTOR signaling in human U87 cells assessed as down regulation of TXNDC17 gene expression at cytotoxic IC50 measured after 48 hrs relative to control
[12] = Inhibition of RTK/PI3K/AKT/mTOR signaling in human U87 cells assessed as up regulation of DNA polymerase iota gene expression at cytotoxic IC50 measured after 48 hrs relative to control
[13] = Inhibition of RTK/PI3K/AKT/mTOR signaling in human U87 cells assessed as up regulation of thyroid hormone receptor interactor 6 gene expression at cytotoxic IC50 measured after 48 hrs relative to control
[14] = Inhibition of RTK/PI3K/AKT/mTOR signaling in human U87 cells assessed as down regulation of OSER1 gene expression at cytotoxic IC50 measured after 48 hrs relative to control
[15] = Inhibition of RTK/PI3K/AKT/mTOR signaling in human U87 cells assessed as up regulation of BCL2 binding component 3 gene expression at cytotoxic IC50 measured after 48 hrs relative to control
[16] = Inhibition of RTK/PI3K/AKT/mTOR signaling in human U87 cells assessed as down regulation of CEP85 gene expression at cytotoxic IC50 measured after 48 hrs relative to control
[17] = Inhibition of RTK/PI3K/AKT/mTOR signaling in human U87 cells assessed as up regulation of MYH15 gene expression at cytotoxic IC50 measured after 48 hrs relative to control
[18] = Inhibition of RTK/PI3K/AKT/mTOR signaling in human U87 cells assessed as up regulation of solute carrier family 38 member 10 gene expression at cytotoxic IC50 measured after 48 hrs relative to control
[19] = Inhibition of RTK/PI3K/AKT/mTOR signaling in human U87 cells assessed as down regulation of POLR2A gene expression at cytotoxic IC50 measured after 48 hrs relative to control
[20] = Inhibition of RTK/PI3K/AKT/mTOR signaling in human U87 cells assessed as up regulation of GNB1 gene expression at cytotoxic IC50 measured after 48 hrs relative to control
[21] = Inhibition of RTK/PI3K/AKT/mTOR signaling in human U87 cells assessed as down regulation of RAD54L gene expression at cytotoxic IC50 measured after 48 hrs relative to control
[22] = Inhibition of RTK/PI3K/AKT/mTOR signaling in human U87 cells assessed as down regulation of TOPBP1 gene expression at cytotoxic IC50 measured after 48 hrs relative to control
[23] = Inhibition of RTK/PI3K/AKT/mTOR signaling in human U87 cells assessed as up regulation of VEGFB gene expression at cytotoxic IC50 measured after 48 hrs relative to control
[24] = Inhibition of RTK/PI3K/AKT/mTOR signaling in human U87 cells assessed as up regulation of zinc finger protein 524 gene expression at cytotoxic IC50 measured after 48 hrs relative to control
[25] = Inhibition of RTK/PI3K/AKT/mTOR signaling in human U87 cells assessed as down regulation of NDOR1 gene expression at cytotoxic IC50 measured after 48 hrs relative to control
[26] = Inhibition of RTK/PI3K/AKT/mTOR signaling in human U87 cells assessed as up regulation of ATP synthase F0 subunit 8 gene expression at cytotoxic IC50 measured after 48 hrs relative to control
[27] = Inhibition of RTK/PI3K/AKT/mTOR signaling in human U87 cells assessed as down regulation of NRBP1 gene expression at cytotoxic IC50 measured after 48 hrs relative to control
[28] = Inhibition of RTK/PI3K/AKT/mTOR signaling in human U87 cells assessed as up regulation of ABCA12 gene expression at cytotoxic IC50 measured after 48 hrs relative to control
[29] = Inhibition of RTK/PI3K/AKT/mTOR signaling in human U87 cells assessed as down regulation of TAF2 gene expression at cytotoxic IC50 measured after 48 hrs relative to control
[30] = Inhibition of RTK/PI3K/AKT/mTOR signaling in human U87 cells assessed as down regulation of SHTN1 gene expression at cytotoxic IC50 measured after 48 hrs relative to control
[31] = Inhibition of RTK/PI3K/AKT/mTOR signaling in human U87 cells assessed as up regulation of nudix hydrolase 14 gene expression at cytotoxic IC50 measured after 48 hrs relative to control
[32] = Inhibition of RTK/PI3K/AKT/mTOR signaling in human U87 cells assessed as up regulation of CCAAT/enhancer binding protein gamma gene expression at cytotoxic IC50 measured after 48 hrs relative to control

CC(=O)C(=NNc1ccccc1C#N)C(C)=O
log2FC [1]: 1.97
log2FC [2]: -0.811
log2FC [3]: -1.55
log2FC [4]: 0.904
log2FC [5]: -1.06
log2FC [6]: -0.321
log2FC [7]: -0.605
log2FC [8]: 1.06
log2FC [9]: 0.473
log2FC [10]: -1.47
log2FC [11]: -0.926
log2FC [12]: 0.875
log2FC [13]: 1.31
log2FC [14]: -0.876
log2FC [15]: 0.834
log2FC [16]: -0.503
log2FC [17]: 2.79
log2FC [18]: 0.658
log2FC [19]: -0.863
log2FC [20]: 0.507
log2FC [21]: -1.26
log2FC [22]: -0.67
log2FC [23]: 2.04
log2FC [24]: 1.44
log2FC [25]: -1.35
log2FC [26]: 0.977
log2FC [27]: -1.14
log2FC [28]: 2.99
log2FC [29]: -0.503
log2FC [30]: -0.524
log2FC [31]: 1.17
log2FC [32]: 0.832
